# Assay results published in the supplement of paper PMC10849652.
# Sequences of proteins named here, by UniProt entry; tags and fusion partners are left off. A change or cut given only in a name is not applied to a line headed by its entry.
# UniProt P24311, whole entry, looked up: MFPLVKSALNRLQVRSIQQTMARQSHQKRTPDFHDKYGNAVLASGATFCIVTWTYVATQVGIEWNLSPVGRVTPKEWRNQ
# UniProt Q9BWP8: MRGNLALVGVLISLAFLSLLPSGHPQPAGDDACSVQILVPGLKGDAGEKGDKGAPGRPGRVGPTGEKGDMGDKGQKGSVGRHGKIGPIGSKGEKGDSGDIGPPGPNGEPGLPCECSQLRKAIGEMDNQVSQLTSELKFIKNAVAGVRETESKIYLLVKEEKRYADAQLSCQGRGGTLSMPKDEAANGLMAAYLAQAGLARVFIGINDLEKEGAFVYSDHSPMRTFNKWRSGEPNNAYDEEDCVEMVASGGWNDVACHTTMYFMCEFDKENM
# UniProt Q9H8M5: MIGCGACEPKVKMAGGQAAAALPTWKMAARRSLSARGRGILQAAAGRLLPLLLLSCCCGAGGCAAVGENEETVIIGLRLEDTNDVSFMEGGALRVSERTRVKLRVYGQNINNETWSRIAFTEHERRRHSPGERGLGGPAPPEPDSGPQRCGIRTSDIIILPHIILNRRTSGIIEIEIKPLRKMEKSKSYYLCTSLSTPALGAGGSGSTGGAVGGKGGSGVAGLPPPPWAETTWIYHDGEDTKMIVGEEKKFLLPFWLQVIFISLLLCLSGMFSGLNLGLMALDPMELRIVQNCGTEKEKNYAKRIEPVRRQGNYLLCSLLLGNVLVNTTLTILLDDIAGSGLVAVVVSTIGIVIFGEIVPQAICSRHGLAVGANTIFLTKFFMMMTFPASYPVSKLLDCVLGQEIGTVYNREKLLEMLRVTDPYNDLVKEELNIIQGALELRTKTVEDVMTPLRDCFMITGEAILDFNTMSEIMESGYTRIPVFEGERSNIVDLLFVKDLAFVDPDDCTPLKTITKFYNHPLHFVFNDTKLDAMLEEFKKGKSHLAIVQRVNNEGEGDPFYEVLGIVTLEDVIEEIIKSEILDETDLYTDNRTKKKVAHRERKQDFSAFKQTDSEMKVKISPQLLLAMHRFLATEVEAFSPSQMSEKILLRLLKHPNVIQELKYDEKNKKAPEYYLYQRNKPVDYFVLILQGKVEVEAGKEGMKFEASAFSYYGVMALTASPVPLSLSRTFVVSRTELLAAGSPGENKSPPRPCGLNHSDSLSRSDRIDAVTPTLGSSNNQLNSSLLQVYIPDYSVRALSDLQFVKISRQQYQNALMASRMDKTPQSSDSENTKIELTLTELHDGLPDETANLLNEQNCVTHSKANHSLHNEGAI
# UniProt Q9P003: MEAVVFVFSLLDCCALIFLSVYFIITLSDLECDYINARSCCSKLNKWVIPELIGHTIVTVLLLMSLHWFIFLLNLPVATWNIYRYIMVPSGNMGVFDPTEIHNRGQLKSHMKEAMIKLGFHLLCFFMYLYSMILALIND
# UniProt G9CGD6: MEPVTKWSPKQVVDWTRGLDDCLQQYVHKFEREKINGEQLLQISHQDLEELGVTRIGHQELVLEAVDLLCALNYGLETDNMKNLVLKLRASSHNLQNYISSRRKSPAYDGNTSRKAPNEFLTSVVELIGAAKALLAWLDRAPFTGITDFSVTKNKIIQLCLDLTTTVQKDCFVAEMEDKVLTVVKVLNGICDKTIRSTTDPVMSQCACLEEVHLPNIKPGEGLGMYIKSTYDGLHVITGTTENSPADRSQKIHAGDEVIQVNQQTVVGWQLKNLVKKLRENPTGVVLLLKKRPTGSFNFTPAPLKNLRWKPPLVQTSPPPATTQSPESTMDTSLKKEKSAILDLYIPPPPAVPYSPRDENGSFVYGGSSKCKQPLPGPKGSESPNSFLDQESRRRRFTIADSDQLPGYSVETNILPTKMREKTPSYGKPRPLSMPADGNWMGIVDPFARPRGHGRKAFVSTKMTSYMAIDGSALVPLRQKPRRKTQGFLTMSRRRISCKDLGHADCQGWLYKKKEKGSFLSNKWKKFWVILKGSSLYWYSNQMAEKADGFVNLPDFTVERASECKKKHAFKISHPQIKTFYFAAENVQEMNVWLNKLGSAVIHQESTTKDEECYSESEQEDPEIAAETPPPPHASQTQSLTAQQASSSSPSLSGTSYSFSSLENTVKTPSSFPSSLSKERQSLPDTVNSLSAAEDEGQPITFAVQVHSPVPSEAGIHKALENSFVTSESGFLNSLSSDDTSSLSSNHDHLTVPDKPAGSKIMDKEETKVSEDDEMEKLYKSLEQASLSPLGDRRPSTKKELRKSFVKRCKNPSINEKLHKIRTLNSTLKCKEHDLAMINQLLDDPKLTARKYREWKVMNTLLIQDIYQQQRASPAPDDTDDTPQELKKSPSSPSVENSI
# UniProt Q5TA50: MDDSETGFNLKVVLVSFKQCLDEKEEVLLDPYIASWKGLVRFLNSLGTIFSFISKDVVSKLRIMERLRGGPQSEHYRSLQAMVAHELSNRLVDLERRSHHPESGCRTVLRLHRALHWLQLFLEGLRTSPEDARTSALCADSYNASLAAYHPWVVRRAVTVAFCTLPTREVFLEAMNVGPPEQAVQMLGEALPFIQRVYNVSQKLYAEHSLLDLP
# UniProt Q99715: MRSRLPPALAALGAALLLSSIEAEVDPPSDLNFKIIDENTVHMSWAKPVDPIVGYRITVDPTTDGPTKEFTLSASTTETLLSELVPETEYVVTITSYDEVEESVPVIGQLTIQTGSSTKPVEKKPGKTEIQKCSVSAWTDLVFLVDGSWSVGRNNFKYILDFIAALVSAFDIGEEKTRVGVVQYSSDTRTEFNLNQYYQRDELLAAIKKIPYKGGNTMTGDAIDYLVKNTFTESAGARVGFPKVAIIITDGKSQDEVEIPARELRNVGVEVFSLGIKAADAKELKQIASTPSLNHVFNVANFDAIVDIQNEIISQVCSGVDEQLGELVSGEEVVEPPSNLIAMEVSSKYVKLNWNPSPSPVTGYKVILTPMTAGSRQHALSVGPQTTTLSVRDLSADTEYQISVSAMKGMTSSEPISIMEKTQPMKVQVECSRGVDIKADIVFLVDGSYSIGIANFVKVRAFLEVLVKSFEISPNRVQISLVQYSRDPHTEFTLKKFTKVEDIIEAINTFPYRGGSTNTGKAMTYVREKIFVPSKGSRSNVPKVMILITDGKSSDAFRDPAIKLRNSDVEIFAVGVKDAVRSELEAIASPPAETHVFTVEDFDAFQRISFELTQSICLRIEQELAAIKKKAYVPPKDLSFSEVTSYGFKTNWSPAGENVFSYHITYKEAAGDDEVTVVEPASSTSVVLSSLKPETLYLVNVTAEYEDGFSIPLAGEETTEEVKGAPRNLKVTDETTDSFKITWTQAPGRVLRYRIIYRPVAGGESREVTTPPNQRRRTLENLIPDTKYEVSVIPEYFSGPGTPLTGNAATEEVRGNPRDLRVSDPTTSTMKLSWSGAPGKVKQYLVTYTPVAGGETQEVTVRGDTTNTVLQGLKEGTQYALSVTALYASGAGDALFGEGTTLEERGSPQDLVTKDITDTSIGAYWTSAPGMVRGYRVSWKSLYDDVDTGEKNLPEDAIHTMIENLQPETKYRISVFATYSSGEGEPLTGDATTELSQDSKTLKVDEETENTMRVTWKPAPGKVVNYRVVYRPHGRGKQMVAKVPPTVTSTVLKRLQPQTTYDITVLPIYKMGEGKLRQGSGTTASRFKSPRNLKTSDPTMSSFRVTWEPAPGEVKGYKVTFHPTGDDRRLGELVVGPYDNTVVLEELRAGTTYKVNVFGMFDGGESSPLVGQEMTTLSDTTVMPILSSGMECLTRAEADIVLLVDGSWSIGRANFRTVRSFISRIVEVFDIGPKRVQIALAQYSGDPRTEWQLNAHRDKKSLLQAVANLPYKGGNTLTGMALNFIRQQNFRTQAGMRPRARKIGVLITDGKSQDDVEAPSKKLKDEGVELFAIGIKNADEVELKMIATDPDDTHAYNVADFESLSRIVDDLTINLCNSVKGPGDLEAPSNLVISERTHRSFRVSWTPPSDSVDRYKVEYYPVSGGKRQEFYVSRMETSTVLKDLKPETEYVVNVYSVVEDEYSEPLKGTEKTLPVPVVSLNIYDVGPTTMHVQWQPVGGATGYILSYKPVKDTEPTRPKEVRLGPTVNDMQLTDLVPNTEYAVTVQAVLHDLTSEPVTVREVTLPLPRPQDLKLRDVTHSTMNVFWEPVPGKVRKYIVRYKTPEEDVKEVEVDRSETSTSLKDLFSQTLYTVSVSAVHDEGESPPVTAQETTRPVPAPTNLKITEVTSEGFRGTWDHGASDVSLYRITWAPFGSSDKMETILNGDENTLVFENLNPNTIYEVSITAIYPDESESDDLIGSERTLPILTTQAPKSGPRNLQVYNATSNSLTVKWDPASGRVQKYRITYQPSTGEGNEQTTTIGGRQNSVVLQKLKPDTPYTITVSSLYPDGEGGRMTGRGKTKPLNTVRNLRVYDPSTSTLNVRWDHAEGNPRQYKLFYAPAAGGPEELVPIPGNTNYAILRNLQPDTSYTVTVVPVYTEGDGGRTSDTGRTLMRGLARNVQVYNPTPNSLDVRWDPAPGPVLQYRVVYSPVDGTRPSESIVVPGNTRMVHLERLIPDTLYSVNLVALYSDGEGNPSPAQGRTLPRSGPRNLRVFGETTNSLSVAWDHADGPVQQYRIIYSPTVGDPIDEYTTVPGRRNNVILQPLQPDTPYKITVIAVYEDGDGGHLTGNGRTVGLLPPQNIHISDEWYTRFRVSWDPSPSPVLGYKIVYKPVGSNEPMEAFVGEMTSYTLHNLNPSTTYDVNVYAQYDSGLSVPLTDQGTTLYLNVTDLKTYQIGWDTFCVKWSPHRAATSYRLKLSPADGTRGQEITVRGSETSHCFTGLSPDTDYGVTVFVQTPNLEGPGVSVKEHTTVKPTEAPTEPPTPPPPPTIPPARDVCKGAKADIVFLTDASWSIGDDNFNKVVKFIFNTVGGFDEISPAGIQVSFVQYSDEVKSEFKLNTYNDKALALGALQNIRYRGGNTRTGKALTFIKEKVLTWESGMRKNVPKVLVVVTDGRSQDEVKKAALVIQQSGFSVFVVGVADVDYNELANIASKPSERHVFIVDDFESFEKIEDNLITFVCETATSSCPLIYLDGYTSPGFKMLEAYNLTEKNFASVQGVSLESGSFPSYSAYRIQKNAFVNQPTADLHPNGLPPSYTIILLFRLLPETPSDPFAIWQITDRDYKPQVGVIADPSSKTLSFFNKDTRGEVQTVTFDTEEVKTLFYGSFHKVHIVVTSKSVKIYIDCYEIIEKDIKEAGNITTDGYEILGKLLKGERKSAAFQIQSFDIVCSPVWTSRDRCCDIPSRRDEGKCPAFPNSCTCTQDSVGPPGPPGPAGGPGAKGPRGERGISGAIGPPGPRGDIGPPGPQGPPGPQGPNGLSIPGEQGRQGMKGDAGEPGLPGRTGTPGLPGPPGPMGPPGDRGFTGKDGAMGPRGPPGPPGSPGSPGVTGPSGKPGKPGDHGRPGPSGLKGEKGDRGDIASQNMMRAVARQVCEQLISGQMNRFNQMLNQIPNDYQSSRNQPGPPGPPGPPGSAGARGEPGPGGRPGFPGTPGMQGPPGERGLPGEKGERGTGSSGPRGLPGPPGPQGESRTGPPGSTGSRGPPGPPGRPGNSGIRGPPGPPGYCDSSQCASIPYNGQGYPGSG
# UniProt Q7Z4G1, whole entry, looked up: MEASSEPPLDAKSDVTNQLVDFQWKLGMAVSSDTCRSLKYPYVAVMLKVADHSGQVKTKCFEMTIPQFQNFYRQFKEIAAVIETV
# UniProt O14810: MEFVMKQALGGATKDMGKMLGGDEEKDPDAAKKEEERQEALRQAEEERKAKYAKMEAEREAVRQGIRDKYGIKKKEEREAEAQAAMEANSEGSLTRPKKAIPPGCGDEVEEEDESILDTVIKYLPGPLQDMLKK
# UniProt Q86WW8: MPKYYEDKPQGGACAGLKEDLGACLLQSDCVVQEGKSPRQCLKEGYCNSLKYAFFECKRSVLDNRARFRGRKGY
# UniProt Q8NE35: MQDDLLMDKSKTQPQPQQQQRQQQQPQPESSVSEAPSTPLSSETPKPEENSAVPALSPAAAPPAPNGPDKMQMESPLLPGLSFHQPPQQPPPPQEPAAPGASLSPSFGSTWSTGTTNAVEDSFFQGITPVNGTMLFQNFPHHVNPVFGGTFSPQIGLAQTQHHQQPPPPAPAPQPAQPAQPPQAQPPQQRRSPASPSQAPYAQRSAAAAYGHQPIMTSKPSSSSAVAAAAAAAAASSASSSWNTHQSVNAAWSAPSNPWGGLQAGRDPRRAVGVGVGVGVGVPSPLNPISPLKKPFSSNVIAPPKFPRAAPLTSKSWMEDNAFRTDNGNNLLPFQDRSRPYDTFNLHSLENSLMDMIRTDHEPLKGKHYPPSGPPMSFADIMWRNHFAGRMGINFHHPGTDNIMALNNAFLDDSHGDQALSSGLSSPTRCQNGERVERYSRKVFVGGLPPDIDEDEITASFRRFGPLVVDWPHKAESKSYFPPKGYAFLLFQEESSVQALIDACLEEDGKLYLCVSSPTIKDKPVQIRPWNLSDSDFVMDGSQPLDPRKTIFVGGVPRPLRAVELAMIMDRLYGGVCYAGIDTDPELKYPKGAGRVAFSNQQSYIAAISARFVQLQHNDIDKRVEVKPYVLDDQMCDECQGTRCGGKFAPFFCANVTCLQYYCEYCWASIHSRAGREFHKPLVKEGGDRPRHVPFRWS
# UniProt Q96I36: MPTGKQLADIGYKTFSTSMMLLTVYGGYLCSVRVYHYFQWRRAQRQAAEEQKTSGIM
# The list shows a part of the results.
# Compound: CN1CCN(CCOc2cc(OC3CCOCC3)c3c(Nc4c(Cl)ccc5c4OCO5)ncnc3c2)CC1 [saracatinib]
# Experiment: log2 fold change, soluble protein after heating vs DMSO (PISA); higher = thermal stabilisation; K562 lysate, 10 uM; active = over 0.2 and 3.5 SD of the protein, either way, in both replicates (recomputed)
# How it was run: (§1)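 Thermal stability, expressed as log-two fold change relative to solvent controls, is given from duplicates. Crude K562 extract in PBS pH 7.4 with 1 mM MgCl2, at 1 mg/mL protein, was treated with 10 μM compound for 30 min and heated in aliquots for 3 min across 48°C-58°C. After pooling, adjustment to 0.5% NP-40 at 4°C and centrifugation at 21,000xg for 90 min, supernatant protein was measured by TMTpro 16plex LC-MS/MS with channel sums equalised.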
row,Target,log2 fold change
1,COX10 (UniProt Q12887),inactive: 0.031
2,COMMD3-BMI1 (UniProt R4GMX3),inactive: 0.016
3,CNNM1 (UniProt Q9NRU3),inactive: -0.016
4,COX7B (UniProt P24311),inactive: -0.062
5,CRACR2B (UniProt Q8N4Y2),inactive: -0.032
6,COLEC11 isoform 10 (UniProt Q9BWP8),inactive: 0.051
7,COL6A3 (UniProt P12111),inactive: -0.039
8,CNNM2 (UniProt Q9H8M5),inactive: -0.039
9,CNIH4 (UniProt Q9P003),inactive: 0.021
10,CPVL (UniProt Q9H3G5),inactive: 0.084
11,COP1 (UniProt Q8NHY2),inactive: -0.071
12,CNTROB isoform 2 (UniProt Q8N137),inactive: -0.002
13,CNK3/IPCEF1 isoform 2 (UniProt G9CGD6),inactive: 0.053
14,COMTD1 (UniProt Q86VU5),inactive: -0.064
15,CPTP (UniProt Q5TA50),inactive: 0.001
16,COL14A1 (UniProt Q05707),inactive: -0.003
17,CPNE2 (UniProt Q96FN4),inactive: 0.009
18,COL12A1 (UniProt Q99715),inactive: 0.063
19,CPNE8 (UniProt Q86YQ8),inactive: -0.09
20,COMMD6 isoform 2 (UniProt Q7Z4G1),inactive: -0.03
21,COPS2 (UniProt P61201),inactive: -0.043
22,CPLX1 (UniProt O14810),active: 0.893
23,CNTRL (UniProt Q7Z7A1),inactive: 0.063
24,CNRIP1 (UniProt Q96F85),inactive: 0.021
25,CORO7 (UniProt P57737),inactive: 0.166
26,COA5 (UniProt Q86WW8),inactive: 0.018

# Compound: CN1CCN(c2nc(C3=C(c4c[nH]c5ccccc45)C(=O)NC3=O)c3ccccc3n2)CC1 [sotrastaurin]
# Experiment: as above
# How it was run: as §1
row,Target,log2 fold change
1,COX10 (UniProt Q12887),inactive: 0.005
2,COMMD3-BMI1 (UniProt R4GMX3),inactive: 0.012
3,COX7B (UniProt P24311),inactive: -0.028
4,COL6A3 (UniProt P12111),inactive: 0.031
5,CNNM2 (UniProt Q9H8M5),inactive: 0.091
6,CPLANE2 (UniProt Q9BU20),inactive: 0.108
7,CNIH4 (UniProt Q9P003),inactive: 0.066
8,COX17 (UniProt Q14061),inactive: 0.114
9,CPVL (UniProt Q9H3G5),inactive: -0.049
10,COP1 (UniProt Q8NHY2),inactive: 0.019
11,COMTD1 (UniProt Q86VU5),inactive: 0.051
12,CPTP (UniProt Q5TA50),inactive: 0.074
13,COL14A1 (UniProt Q05707),inactive: 0.082
14,CPNE2 (UniProt Q96FN4),inactive: 0.05
15,CPEB3 (UniProt Q8NE35),inactive: 0.009
16,COL12A1 (UniProt Q99715),inactive: -0.233
17,CPNE8 (UniProt Q86YQ8),inactive: 0.082
18,CNOT7 (UniProt H0YBT3),inactive: -0.011
19,COMMD6 isoform 2 (UniProt Q7Z4G1),inactive: 0.028
20,COPS2 (UniProt P61201),inactive: 0.009
21,COQ8B (UniProt Q96D53),inactive: -0.029
22,CORO6 isoform 5 (UniProt Q6QEF8),inactive: -0.002
23,COX14 (UniProt Q96I36),inactive: 0.014
24,CNTRL (UniProt Q7Z7A1),inactive: -0.006
25,CPA4 (UniProt Q9UI42),inactive: 0.019
26,CNRIP1 (UniProt Q96F85),inactive: 0.076
27,CORO7 (UniProt P57737),inactive: 0.137
28,COA5 (UniProt Q86WW8),inactive: 0.01
